No constants are given. Whether binding was seen depends on the method and setting. In cells and extracts the contact can be indirect. Some entries that bind do so weakly or less than the wild type. Tags and fused reporters may be left off the sequences shown.
Biological target: DmsD with 6xHis tag (E. coli) (UniProt P69853)
Test: pull-down

By UniProt entry, the sequences of proteins in these tests, tags left out.
UniProt P69853, whole entry: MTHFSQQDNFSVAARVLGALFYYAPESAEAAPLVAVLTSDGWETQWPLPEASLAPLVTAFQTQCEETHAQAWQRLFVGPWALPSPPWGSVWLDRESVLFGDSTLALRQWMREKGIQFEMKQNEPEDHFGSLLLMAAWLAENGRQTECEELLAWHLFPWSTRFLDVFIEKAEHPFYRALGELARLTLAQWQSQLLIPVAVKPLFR

B1: EcTatBC without 6xHis tag (complex of TatB and TatC) (complex, UniProt P69425 1-171; P69423 1-258)
chain 1: MFDIGFSELLLVFIIGLVVLGPQRLPVAVKTVAGWIRALRSLATTVQNELTQELKLQEFQDSLKKVEKASLTNLTPELKASMDELRQAAESMKRSYVANDPEKASDEAHTIHNPVVKDNEAAHEGVTPAAAQTQASSPEQKPETTPEPVVKPAADAEPKTAAPSPSSSDKP
chain 2: MSVEDTQPLITHLIELRKRLLNCIIAVIVIFLCLVYFANDIYHLVSAPLIKQLPQGSTMIATDVASPFFTPIKLTFMVSLILSAPVILYQVWAFIAPALYKHERRLVVPLLVSSSLLFYIGMAFAYFVVFPLAFGFLANTAPEGVQVSTDIASYLSFVMALFMAFGVSFEVPVAIVLLCWMGITSPEDLRKKRPYVLVGAFVVGMLLTPPDVFSQTLLAIPMYCLFEIGVFFSRFYVGKGRNREEENDAEAESEKTEE
- binding: binds

Source: doi:10.1101/789909 (bioRxiv, 2019)
